Publication PMC7046683 (Frontiers in Oncology, 2020)

Columns and labels:
mouse liver microsomes = test: 4OH-tamoxifen glucuronidation assay in liver microsomes, with or without morphine; assay type: in vitro ADME; details: morphine 500 μM vs absence of morphine
[1] = three i.p. injections of morphine 10 mg/kg at 0, 1 and 2 h; mean ± SEM

CN1CC[C@]23c4c5ccc(O)c4O[C@H]2[C@@H](O)C=C[C@H]3[C@H]1C5 [morphine]
Change of Km for 4OH-tamoxifen-glucuronide production caused by morphine (mouse liver microsomes): +45% | Highest concentration in the blood [1]: 1,599 ± 336 pmol/ml
